Test results: article PMC9638971
Results are given in words; binding and its absence hold for the method and conditions named.

Molecular target: periplasmic chaperone SurA of P. aeruginosa (P. aeruginosa PAO1) (UniProt Q9I5U3)
Assay: SEC-MALS; isolated chaperones at 2 mg/ml, Superdex 200 Increase 10/300 GL; FkpA, SurA and PpiD in 50 mM KCl, 5 mM MgCl2, 20 mM HEPES-KOH pH 7.4; YfgM in 5 mM glycine, 20 mM NaCl, 5 mM Tris-HCl pH 8.5; Skp in 100 mM NaCl, 20 mM Tris-HCl pH 8.0; LipH in 100 mM NaCl, 200 µM TCEP, 50 mM Tris-HCl pH 8.0; both purified

B1: periplasmic chaperone SurA of P. aeruginosa (protein, UniProt Q9I5U3 13-417)
chain: EVVPLDRVVAIVDNDVIMQSQLDQRLREVHQTLLKRGAPLPPEHVLTQQVLERLIIENIQQQIGDRSGIRISDEELNQAMGTIAQRNGMSLEQFQTALTRDGLSYADAREQVRREMVISRVRQRRVAERIQVSEQEVKNFLASDMGKIQLSEEYRLANILIPVPEAASSDVIQAAARQAQELYQQLKQGADFGQLAISRSAGDNALEGGEIGWRKAAQLPQPFDSMIGSLAVGDVTEPVRTPGGFIILKLEEKRGGSKMVRDEVHVRHILLKPSEIRSEAETEKLAQKLYERIQSGEDFGELAKSFSEDPGSALNGGDLNWIDPEALVPEFRQVMNDTPQGELSKPFRSQFGWHILQVLGRRATDSSEKFREQQAVSVLRNRKYDEELQAWLRQIRDEAYVEIKQ
For B1, the binding was “no binding (tested: 2 mg/ml)”.
